No constants are given. Whether binding was seen depends on the method and setting. Binding calls can cover weak binding; strength is not graded here.
Biological target: Pseudomonas aeruginosa FtsW (Pseudomonas aeruginosa) (UniProt Q9HW00)
Assay: cryo-EM structure

- binding: binds
Substance: Pseudomonas aeruginosa FtsI (from UniProt G3XD46 1-579) (enzyme)

Reference: doi:10.1101/2022.11.21.517367
